Measured values: patent publication EP4201483A1, “LPL1 DERIVED IMMUNE ENHANCING PEPTIDES” (priority 2021, dated 2023)
These are yes or no findings as the source states them, for the method shown. Some entries that bind do so weakly or less than the wild type.

Molecular target: human heat shock protein Hsp90α (human) (UniProt P07900)
Test: dot blot assay, direct interaction with Hsp90α

Row | Binder | binding
1 | GHYFVTTFY [L13 peptide] | binds
2 | TAKGHYFVTTFYRNG [L15 peptide] | binds
3 | LNC1 (64 aa), LNC1 core of Lpl1 of S. aureus (peptide) peptide: TAKGHYFVTTFYRNGKLPDEKNYKIEMKNNKIILLDEVKDDKLKQKIENFKFFGQYANLKELRK | binds
4 | LNC2 (64 aa) (peptide) peptide: DEIVKELRSRYNISTEKSPILKMHIDGDLKGSSVGYRKLEIDFSKRENSKLSVIEFLSYKPAKK | binds
5 | RSRYNISTEKSPILKMHIDGDLKGSSVGYRKLEIDFSK [MNC3 (38aa)] | binds
